# Assay results reported in PubChem BioAssay AID504582 (Broad Institute, 2011).
# Several values for one entry are separate records, joined by “and”; a condition that tells them apart may be missing. Equal values may be shown once. Among all 340,000 compounds or so, about 2,300 (0.68%) were called active. Inconclusive means that the source gave no clear call. Such entries were picked first, then a sample of the others. Cut-off read from the data, not from the text of the source: active = growth rescue above about 28% (passing the limit was not always enough); inconclusive = no clear call, values can overlap the other calls.
# Assay: rescue of yeast from PfHsp40 toxicity, primary screen, S. cerevisiae, ATP luminescence (AID 504582);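 note: yeast W303a lacking pdr1 and pdr3 grown in galactose medium; growth measured after three days at 30 °C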
# Conditions: S. cerevisiae expressing PfHsp40, growth rescue, at 12.5 µM, stronger effect = higher value
row,SMILES,growth rescue
1,Cc1ccc(C(=O)NNC(=S)NC(=O)c2ccc(Cl)cc2Cl)cc1,inconclusive: 51.7%
2,Cc1ccc(-c2nn(C(C)(C)C)c3ncnc(N)c23)cc1,active: 263%
3,Cc1cccn2c(=O)c3cc(C(=O)NC4CCCC4)c(=N)n(CCCN4CCOCC4)c3nc12,inactive: -0.913%
4,O=C(O)c1ccc(Nc2ccc([N+](=O)[O-])c3nonc23)cc1,inactive: 0.594%
5,CC(=O)C1=C(c2ccc(Br)cc2)C(=O)c2ccccc2C1=O,inconclusive: 81.9%
6,O=C(c1ccc(F)cc1)N1CCN2C(=O)c3ccccc3C12c1ccc(Cl)cc1 (centres undefined),inconclusive: 35.1%
7,Cc1ccc(CN2CC34C=CC(O3)C(C(=O)NCc3ccc5c(c3)OCO5)C4C2=O)cc1 (centres undefined),inconclusive: 34.2%
8,Cc1ccc(O)c(N=Cc2ccc(C)s2)c1,inconclusive: 35%
9,COC(=O)c1c(C)[nH]c(C)c1-c1cccc([N+](=O)[O-])c1,inconclusive: 55%
10,CCOc1ccc(C(=O)C(CN2CCOCC2)c2ccccc2)cc1 (centres undefined),inconclusive: 29.2%
11,CCOc1ccccc1N(CC(=O)Nc1ccc(OC)c(OC)c1)S(=O)(=O)c1ccccc1,inconclusive: 30.5%
12,O=C(c1ccc(Cl)cc1)C(Cn1cncn1)C(Sc1ccccc1)c1ccccc1 (centres undefined),inconclusive: 42.8%
13,Cc1[nH]n(C2=NCCS2)c(=O)c1N=Nc1cccc(C(F)(F)F)c1,inconclusive: 87.8%
14,COc1ccc(C(=O)Nc2ccccc2C(=O)Nc2cccnc2)cc1,inconclusive: 62.9%
15,COc1ccc(-c2cc(C(=O)N3CCN(c4ccccc4F)CC3)c3ccccc3n2)c(OC)c1,active: 376%
16,CC(C)(C)C1CCC(OC(=O)CCC(=O)Nc2ccccc2)CC1 (centres undefined),inconclusive: 128%
17,O=C(NNC(=O)c1cc(-c2cccnc2)nc2ccccc12)Nc1ccc(Cl)cc1,inconclusive: 54.1%
18,CCNC(=O)CCSc1nc2cc(Cl)ccc2o1,active: 111%
19,CC(C)NC(=O)CSc1nc2ccccc2n1-c1ccccc1,inconclusive: 32.4%
20,COc1ccc(-c2sc3ccccc3c2/C=C/c2ccncc2)cc1,active: 75.4%
21,Cc1cc(N2CCN(C)CC2)nc2ccc(NC(=S)NCCN3CCc4ccccc4C3)cc12,active: 48.7%
22,COc1cccc(-c2sc3ccc(OC)cc3c2-c2ccc(OCCN3CCCC3)cc2)c1,active: 40.1%
23,Cc1ccc(NNC(=O)c2ccno2)cc1Cl,inconclusive: 27.4%

row,SMILES,growth rescue
1,COc1cc(/C=C/C(=O)c2ccc(O)cc2)ccc1OCC#N,inconclusive: 32.9%
2,O=C(CN1C(=O)/C(=C/c2ccccc2)SC1=S)NC1CCS(=O)(=O)C1 (centres undefined),inactive: 2.34%
3,COC(=O)C1C(O)CCC2CN3CCc4c([nH]c5ccccc45)C3CC21 (centres undefined),inconclusive: 30.2%
4,Cc1ccc(O)c(N=Cc2cccs2)c1,inconclusive: 76.6%
5,COC(=O)C1=C(C(=O)OC)SC(=C2C(=S)C(C)(C)N(C(=O)C3CC3)c3ccccc32)S1,inconclusive: 26.4%
6,Cc1oc2c(O)c(O)ccc2c(=O)c1-c1ccccc1,inconclusive: 26.7%
7,C[n+]1c2cc(N)ccc2cc2ccc(N)cc21,active: 257% and active: 228%
8,CCCOc1ccc(/C=C/C(=O)OCC(=O)N(C)c2c(N)n(Cc3ccccc3)c(=O)[nH]c2=O)cc1OCC,inconclusive: 218%
9,Cc1ccc(C(=O)Nc2nc3ccccc3[nH]2)cc1,inactive: -3.49%
10,COc1ccc(-c2cc3nc(-c4ccccc4)cc(N4CCCC(O)C4)n3n2)cc1 (centres undefined),active: 66.1%
11,Cc1ccccc1-n1c(=O)c2ccccc2n2c(=O)[nH]nc12,inconclusive: 41.7%
12,COc1ccccc1N1CCN(C(=O)c2cc(=O)c3c(C)cc(C)cc3o2)CC1,inconclusive: 43.9%
13,Oc1cccc2ccc(Nc3ccccn3)nc12,active: 240%
14,COc1ccc(S(=O)(=O)Nc2cccc3c2O[C@H](CN(C)C(=O)NC(C)C)[C@@H](C)CN([C@H](C)CO)C3=O)cc1,inactive: -0.119%
15,COc1cc(CNCCNC(=O)c2nonc2N)ccc1OCc1ccc(Cl)nc1,inactive: 0.133%
16,O=C(NCCC(=O)N1CCN(c2ccccc2O)CC1)c1ccc(Br)cc1,active: 301%
17,CSc1nc2sc3c(c2c(=O)[nH]1)CCC(C)C3 (centres undefined),inconclusive: 31.4%
18,O=C(NCc1ccccc1)c1ccc2nc(-c3ccco3)c(-c3ccco3)nc2c1,inactive: -0.502%
19,C=CCC[C@H](Cc1ccc(F)cc1)C(=O)OC[C@H](Cc1c[nH]c2ccccc12)NC(=O)[C@H](CC=C)CC(=O)NCCO,active: 32.2%
20,O=C1C2C3C=CC(C3)C2C(=O)N1c1n[nH]c(-c2cccnc2)n1 (centres undefined),inactive: 1.23%
21,Cc1nc2cc(C(=O)OCC(=O)NC(C)C(C)C)ccc2n1-c1ccccc1 (centres undefined),inconclusive: 35.6%
22,Oc1c(Cl)cc(Cl)c(Cl)c1Cc1c(O)c(Cl)cc(Cl)c1Cl,inconclusive: 30.4%
23,CCC1(CC)C(=O)NC(=Nc2cccc(C(F)(F)F)c2)NC1=O,active: 111%

row,SMILES,growth rescue
1,Cc1ccc(/C=C/C(=O)NC(=S)N2CCN(C)CC2)cc1,inconclusive: 73.9%
2,CC1(C)Cc2cccc(OCC(=O)N3CCN(c4cccc(C(F)(F)F)c4)CC3)c2O1,active: 41%
3,Cc1ccccc1C(=O)NC(=S)NC1CCS(=O)(=O)C1 (centres undefined),inconclusive: 57.5%
4,O=[N+]([O-])c1c(C(Cl)Cl)nn(-c2ccccc2)c1N1CCCC1,inconclusive: 26.1%
5,CN(C)N1C(N)=C(C#N)C(c2ccccc2F)C2=C1CC(C)(C)CC2=O (centres undefined),inactive: -1.44%
6,Cc1cccc(N=Cc2cc3c(cc2[N+](=O)[O-])OCO3)c1,inactive: 1.07%
7,CC1(C)Cc2cccc(OCC(=O)N3CCN(c4ccc(F)cc4)CC3)c2O1,inconclusive: 45.3%
8,O=[N+]([O-])c1ccc(S(=O)(=O)NCC2COc3ccccc3O2)cc1 (centres undefined),inconclusive: 30.1%
9,Cc1ccc(-n2c(=O)cc(NCc3cccnc3)[nH]c2=O)cc1,inactive: 17.1%
10,CCOC(=O)c1ccccc1NC(=O)COC(=O)Cc1ccccc1F,inconclusive: 163%
11,CCc1ccc(NC(=O)CSc2nncn2-c2cccnc2)cc1,inactive: 0.329%
12,CC(=O)c1c(OC(=O)c2ccccc2Br)ccc2c(C)cc(=O)oc12,inconclusive: 91.6%
13,O=C(Nc1cccc(F)c1)NC1(C(=O)N2CCN3CCCC3C2)CCCCC1 (centres undefined),inconclusive: 28.2%
14,N#Cc1ccc(-c2c(-c3ccccc3)ncc3cc(F)ccc23)cc1,active: 124%
15,O=c1cnnc(N/N=C/c2ccccn2)[nH]1,inconclusive: 26.8%
16,CCN1CCN(CCCNC(=O)c2ccc(/C=C3/Oc4ccccc4N(Cc4cccc(C)c4)C3=O)cc2)CC1,inactive: -0.694%
17,Cc1c(O)ccc(NC(=O)/C=C/c2ccccc2)c1C,inactive: 0.832%
18,Cc1ccc(Sc2ncccc2/C=N/O)cc1,inconclusive: 27.7%
19,COc1cc2c(cc1OC)/C(=C/c1ccc(Cl)cc1)C(=O)OC2,inconclusive: 104%
20,O=C(O)c1ccc(N/N=C/c2cc(Br)cs2)cc1,inconclusive: 93.7%
21,CC(C)c1nn2c(=O)cc(COc3cccc(NC(=O)c4ccco4)c3)nc2s1,inactive: -0.569%
22,CNc1ccc(Br)cc(C(=O)/C=C/c2ccc(Cl)cc2Cl)c1=O,inconclusive: 41.5%
23,O=C(CSCC(=O)N1CCCCC1)Nc1nc(-c2ccc(Cl)s2)cs1,inconclusive: 41.8%

# Ordered by formula weight (rising): some entries from above
row,SMILES,growth rescue
1,COc1cc(/C=C/C(=O)c2ccc(O)cc2)ccc1OCC#N,inconclusive: 32.9%
5,CN(C)N1C(N)=C(C#N)C(c2ccccc2F)C2=C1CC(C)(C)CC2=O (centres undefined),inactive: -1.44%
10,COc1ccc(-c2cc3nc(-c4ccccc4)cc(N4CCCC(O)C4)n3n2)cc1 (centres undefined),active: 66.1%

# (cont.)

row,SMILES,growth rescue
1,COc1ccc(C(=O)NC2CC2)cc1OC1CCN(Cc2ccc(Cl)cc2)CC1,inconclusive: 38%
2,Cc1c(C(=O)N2CCN(c3cccc(Cl)c3)CC2)cccc1[N+](=O)[O-],inconclusive: 28.3%
3,CC(C)C[C@H](NC(=O)OC(C)(C)C)C(=O)N[C@@H](CO)[C@H](O)[C@@H]1C[C@@H]1C(=O)NC1CCCCC1,inconclusive: 28.6%
4,CCOc1ccc(NC(=O)CSc2nc3ccsc3c(=O)n2CCC(=O)O)cc1,inconclusive: 30.6%
5,O=Cc1sc(=O)n(Cc2cccc(C(=O)O)c2)c1Cl,inactive: 1.11%
6,Cc1nn(-c2ccccc2)c2c1C(c1ccc([N+](=O)[O-])cc1)N1C(=N2)C(=O)Nc2ccccc21 (centres undefined),inactive: -0.808%
7,O=[N+]([O-])c1ccc(OC(F)F)c(/C=N/n2cnnc2)c1,inconclusive: 31.2%
8,Cc1ccc(S(=O)(=O)N/N=C\c2ccc([N+](=O)[O-])o2)cc1C,inconclusive: 41.3%
9,CC(C)OCCCNC(=O)c1ccc(NC(=O)C2=CSCCO2)cc1,inactive: 0.388%
10,CC(C)(C)N(Cc1ccccc1)C(=O)COc1cccnc1[N+](=O)[O-],inconclusive: 31.4%
11,O=C1C=CC(=O)N1N(c1ccccc1)c1ccccc1,inconclusive: 48.7%
12,COc1ccc(N2C(=O)c3ccc(C(=O)Nc4ccccc4OC)cc3C2=O)cc1,inactive: -1.68%
13,O=C(COc1ccccc1Cl)NNC(=O)c1ccc2nc[nH]c2c1,inconclusive: 32.9%
14,Fc1ccc(NC(=S)NN2CCOCC2)cc1Cl,inconclusive: 38.8%
15,CCc1ccc(N2C(=O)CN(Cc3ccc(OC)c(OC)c3)C2=S)cc1,active: 31.4%
16,O=c1oc(-c2ccccc2)cc(Cl)c1Cl,active: 556%
17,O=c1ccc2cc(O)c(O)cc2o1,inactive: 0.383%
18,COc1ccc2c(c1)c(C(=O)CN1CCC3(CC1)OCCO3)c(C)n2Cc1ccccc1,inactive: -0.0745%
19,Cc1onc(-c2ccccc2)c1C(=O)NNC(=S)NC(=O)c1ccc(Cl)cc1Cl,inconclusive: 36.8%
20,CCN(CC)c1ccc(/C=N/Nc2nc3ccccc3[nH]2)c(O)c1,active: 158%

# Another view of part of the listing above.
row	SMILES	growth rescue
16	O=c1oc(-c2ccccc2)cc(Cl)c1Cl	active: 556%
17	O=c1ccc2cc(O)c(O)cc2o1	inactive: 0.383%
18	COc1ccc2c(c1)c(C(=O)CN1CCC3(CC1)OCCO3)c(C)n2Cc1ccccc1	inactive: -0.0745%
